Among all 390,000 compounds or so, about 910 (0.23%) were called active. This list was built around the results that the source calls inconclusive (neither active nor inactive); the mix of calls is not that of the screen. Calls follow the shape of the dose curve; as a rule, active = well fitted inhibition curve with a large enough effect; inconclusive = small, poorly fitted or top-dose-only effect; inactive = no such curve, though single readings can be large or run the other way. Where the call is inconclusive, the potency comes from a doubtful curve fit.
These compounds were tested against Ubiquitin carboxyl-terminal hydrolase 1 (Homo sapiens) (UniProt O94782) (assay: Inhibitors of USP1/UAF1: Primary Screen). Conditions: recombinant USP1/UAF1, Ub-Rhodamine cleavage fluorescence; series mostly up to 57.1 µM.
Outline: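 USP1/UAF1 complex (1 nM) preincubated 15 min at room temperature with compound, then Ub-Rho substrate (150 nM final) added. Kinetic fluorescence at 480/540 nm over 6 reads at 60 s intervals; 50 mM HEPES pH 7.8, 0.5 mM EDTA, 0.1 mg/ml BSA, 1 mM TCEP, 0.01% Tween-20.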
Also: nearly all actives have a fitted effect of over 60% in size.
Potency is read from the fitted curve at half-maximal effect.

Amino acid sequences for entries named in this document (tags omitted). A change or cut given only in a name is not applied to a line headed by its entry.
UniProt O94782: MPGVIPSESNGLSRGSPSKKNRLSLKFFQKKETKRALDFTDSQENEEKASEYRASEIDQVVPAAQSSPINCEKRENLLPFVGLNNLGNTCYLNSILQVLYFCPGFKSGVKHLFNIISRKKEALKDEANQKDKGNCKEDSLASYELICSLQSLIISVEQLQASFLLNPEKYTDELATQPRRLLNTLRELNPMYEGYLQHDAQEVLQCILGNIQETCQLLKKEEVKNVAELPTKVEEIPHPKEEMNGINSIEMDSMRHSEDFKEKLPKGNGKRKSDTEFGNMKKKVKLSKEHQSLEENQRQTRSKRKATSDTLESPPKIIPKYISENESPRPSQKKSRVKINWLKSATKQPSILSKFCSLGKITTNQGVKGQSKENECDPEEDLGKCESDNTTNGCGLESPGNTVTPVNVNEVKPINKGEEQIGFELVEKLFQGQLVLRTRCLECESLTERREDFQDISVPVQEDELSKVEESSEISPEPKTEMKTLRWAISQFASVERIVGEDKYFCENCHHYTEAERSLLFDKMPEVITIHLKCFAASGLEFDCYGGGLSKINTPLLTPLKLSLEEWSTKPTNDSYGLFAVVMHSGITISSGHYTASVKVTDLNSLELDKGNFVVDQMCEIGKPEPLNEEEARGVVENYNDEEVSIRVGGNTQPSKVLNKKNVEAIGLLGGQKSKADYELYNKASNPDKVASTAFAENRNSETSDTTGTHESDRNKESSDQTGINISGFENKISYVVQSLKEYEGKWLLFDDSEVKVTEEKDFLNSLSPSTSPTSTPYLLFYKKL

Q: For CCCCN(C)CCNC(=O)c1ccc2c(c1)NC(=O)CN2, which Potency is on record?
A: The Potency was inconclusive: 2 µM [inhibitor, partial curve].

Q: How did the Potency turn out when CN(C)/C=C1\NC(=S)N(c2ccc(Cl)cc2)C1=O was run?
A: The Potency was inconclusive: 7.94 µM [inhibitor, partial curve, poor fit].

Q: COc1cc(/C=C(\CCC(=O)O)c2nc3ccccc3s2)ccc1OCC(=O)Nc1c(Cl)cccc1Cl was tested. Which Potency did it give?
A: Its Potency is inconclusive: 50.1 µM [inhibitor, partial curve, poor fit].

Q: O=C(NCCc1ccc2c(c1)OCCO2)c1cc(S(=O)(=O)N2CCCC2)ccc1Cl was tested. Which Potency did it give?
A: The Potency was “inactive”.

Q: COc1ccc(NC(=O)/C=C/c2ccc(OC(F)F)cc2)cn1 was tested. Which Potency did it give?
A: Its Potency is “inactive”.

Q: For Oc1c(C(Nc2nccs2)c2ccc(C(F)(F)F)cc2)ccc2cccnc12 (centres undefined), which Potency is on record?
A: Its Potency is “inactive”.

Q: For COc1cccc(N2CCN(C(=S)NCCc3ccccc3)CC2)c1, which Potency is on record?
A: Its Potency is “inactive”.

Q: Cc1ccc(-n2c(SCc3ccccc3F)nc3[nH]ncc3c2=O)cc1C was tested. Which Potency did it give?
A: The Potency was inconclusive: 3.55 µM [inhibitor, full curve].

Q: With c1cc2c(cc1Nc1nc(-c3ccc4c(c3)OCO4)cs1)OCCO2 as the compound, how does the Potency read?
A: The Potency was “inactive”.

Q: c1ccc(-c2nn3c(Cn4nnc5ccccc54)nnc3s2)nc1 was tested. Which Potency did it give?
A: The Potency was “inactive”.

Q: How did the Potency turn out when C=CCSc1nnc2nc3c(nn12)c1cc(C)ccc1n3CC=C was run?
A: Its Potency is “inactive”.

Q: With CC1=CC(=C(C#N)c2nc3ccccc3s2)C=C(C)N1Cc1ccco1 as the compound, how does the Potency read?
A: Its Potency is inconclusive: 31.6 µM [inhibitor, partial curve, poor fit].

Q: COc1ccc(C(=O)NCC(c2cccnc2)N2CCN(c3ccc(F)cc3)CC2)cc1 (centres undefined) was tested. Which Potency did it give?
A: The Potency was “inactive”.

Q: Which Potency does the source give for Cc1cc(C)n(C(=O)CNC(=O)c2cccc(Cl)c2)n1 here?
A: The Potency was “inactive”.

Q: With CC(Cl)C(=O)c1ccc2c(c1)CCN2C(=O)C1CC1 (centres undefined) as the compound, how does the Potency read?
A: The Potency was “inactive”.

Q: How did the Potency turn out when Cc1cc(O)c(C(c2cccc(F)c2)N2CCC(C)CC2)c(=O)n1Cc1ccco1 (centres undefined) was run?
A: Its Potency is inconclusive: 251 µM [inhibitor, partial curve, poor fit].

Q: With CC(C)CN(C(=O)C1=COCCO1)c1c(N)n(Cc2ccccc2)c(=O)[nH]c1=O as the compound, how does the Potency read?
A: The Potency was inconclusive: 0.112 µM [inhibitor, full curve, poor fit].

Q: CC1=C(C)CC(C(=O)Nc2nccs2)C(C(=O)O)C1 (centres undefined) was tested. Which Potency did it give?
A: The Potency was inconclusive: 3.98 µM [inhibitor, partial curve].

Q: CCOC(=O)c1ccc(N2C(=O)c3n[nH]c(-c4cccs4)c3C2c2ccc(O)c(OC)c2)cc1 (centres undefined) was tested. Which Potency did it give?
A: Its Potency is inconclusive: 0.631 µM [inhibitor, full curve, poor fit].

Q: With CC12CCC(C(=O)N3CCCCC3)([C@H](Br)C1=O)C2(C)C (some centres undefined) as the compound, how does the Potency read?
A: The Potency was inconclusive: 7.94 µM [inhibitor, partial curve].

Q: With Cc1ccc(S(=O)(=O)Nc2nc3ccccc3nc2N2CCOCC2)cc1 as the compound, how does the Potency read?
A: Its Potency is inconclusive: 50.1 µM [inhibitor, partial curve, poor fit].

Q: CC(OC(=O)CCCN=C1NS(=O)(=O)c2ccccc21)C(=O)Nc1ccc(F)cc1Cl (centres undefined) was tested. Which Potency did it give?
A: The Potency was inconclusive: 0.282 µM [inhibitor, full curve, poor fit].

Q: Which Potency does the source give for O=C(NNC(=O)C1CCN(c2ncccn2)CC1)c1ccc(F)cc1 here?
A: The Potency was inconclusive: 2.24 µM [inhibitor, partial curve].

Q: COc1ccc(C(=O)CSc2nn3c(=O)c(C(C)(C)C)nnc3s2)cc1 was tested. Which Potency did it give?
A: The Potency was “inactive”.

Q: Which Potency does the source give for O=C(N/N=C/c1cccc([N+](=O)[O-])c1)c1nc2ccccc2c(=O)[nH]1 here?
A: Its Potency is “inactive”.

Q: With CCCCn1c(=S)[nH]c2cc(S(=O)(=O)N3CCCCC3)ccc21 as the compound, how does the Potency read?
A: The Potency was inconclusive: 50.1 µM [inhibitor, partial curve, poor fit].

Q: With O=C(Cn1cc(/C=N/NC(=O)c2ccccc2Br)c2ccccc21)Nc1ccc(F)cc1 as the compound, how does the Potency read?
A: The Potency was “inactive”.

Q: For CCN(CC)c1ccc2c(C)c(Cl)c(=O)oc2c1, which Potency is on record?
A: The Potency was “inactive”.

Q: How did the Potency turn out when CCc1ccc(N2CN(Cc3ccco3)CNC2=S)cc1 was run?
A: Its Potency is inconclusive: 5.62 µM [inhibitor, partial curve, poor fit].

Q: With Oc1cccc2c(NC(=S)Nc3ccc(SC(F)F)cc3)cccc12 as the compound, how does the Potency read?
A: Its Potency is inconclusive: 39.8 µM [inhibitor, partial curve].

Q: How did the Potency turn out when O=S1(=O)[C@H]2CC3O[C@]2(C[C@@H]3c2ccc(F)cc2)CN1Cc1ccc(Cl)cc1 was run?
A: Its Potency is inconclusive: 44.7 µM [inhibitor, partial curve, poor fit].

Q: Which Potency does the source give for COc1ccc2nc(C)cc(NCc3ccc(F)cc3)c2c1 here?
A: The Potency was inconclusive: 35.5 µM [inhibitor, partial curve].

Q: CCc1nc2ccc(C(=O)NCCc3ccc(SC)cc3)cc2nc1CC was tested. Which Potency did it give?
A: The Potency was inconclusive: 50.1 µM [inhibitor, partial curve, poor fit].

Q: Which Potency does the source give for Cc1noc(C)c1CSc1nc2ccccc2n1CCc1ccccc1 here?
A: The Potency was “inactive”.

Q: For COc1ccc(/C=C/C(=O)NC(=S)Nc2cc3oc4ccccc4c3cc2OC)cc1, which Potency is on record?
A: Its Potency is inconclusive: 44.7 µM [inhibitor, partial curve, poor fit].

Q: Which Potency does the source give for Cc1ccc(N(NC(=O)C(O)(c2ccccc2)c2ccccc2)C(=O)CCl)cc1 here?
A: The Potency was inconclusive: 28.2 µM [inhibitor, partial curve, poor fit].

Q: For CCCCCCc1cc2cc(/C(N)=N/NC(=O)c3ccncc3)c(=O)oc2cc1O, which Potency is on record?
A: The Potency was inconclusive: 4.47 µM [inhibitor, partial curve].

Q: For CCOc1nc(C)cc(C)c1S(=O)(=O)c1cccc(Cl)c1, which Potency is on record?
A: The Potency was inconclusive: 44.7 µM [inhibitor, partial curve].

Q: For CCC(CC)C(=O)Nc1c(C(=O)N2CCN(c3ccccc3F)CC2)oc2ccccc12, which Potency is on record?
A: The Potency was inconclusive: 35.5 µM [inhibitor, single point].

Q: For O=[N+]([O-])c1cc([N+](=O)[O-])c2oc(-c3ccccc3)c(Br)c2c1O, which Potency is on record?
A: Its Potency is inconclusive: 44.7 µM [inhibitor, partial curve, poor fit].

Q: How did the Potency turn out when CC1=CC(=C(C#N)c2nc3ccccc3s2)C=C(C)N1CC1CCCO1 (centres undefined) was run?
A: The Potency was inconclusive: 31.6 µM [inhibitor, partial curve, poor fit].

Q: How did the Potency turn out when NC(=O)C1CCN(C2=C(NS(=O)(=O)c3ccc(Cl)cc3)C(=O)c3ccccc3C2=O)CC1 was run?
A: Its Potency is inconclusive: 50.1 µM [inhibitor, partial curve].

Q: For CCC(=O)Nc1nnc(S(=O)(=O)N(C)Cc2ccc(Cl)cc2)s1, which Potency is on record?
A: The Potency was inconclusive: 10 µM [inhibitor, partial curve, poor fit].

Q: COc1ccc(Br)c2c1-c1nc(NC(=O)c3cccc(C)c3)sc1C2 was tested. Which Potency did it give?
A: Its Potency is inconclusive: 0.794 µM [inhibitor, full curve, poor fit].

Q: C/C(=N\NC(=S)NCCc1ccccc1)c1ccc(Cl)cc1Cl was tested. Which Potency did it give?
A: Its Potency is inconclusive: 50.1 µM [inhibitor, partial curve, poor fit].

Q: How did the Potency turn out when COc1cc(OC)c(C2=NOC(C(=O)NCc3cccs3)C2)cc1Cl (centres undefined) was run?
A: Its Potency is inconclusive: 35.5 µM [inhibitor, single point].

Q: Which Potency does the source give for Cc1ccc(-n2nc(-c3ccc(N)cc3)cc2N)cc1 here?
A: The Potency was inconclusive: 44.7 µM [inhibitor, partial curve, poor fit].

Q: How did the Potency turn out when CCOC(=O)c1c(C)[nH]c(C2=NNC(=Nc3ccc(OCC)cc3)SC2)c1C was run?
A: The Potency was inconclusive: 11.2 µM [inhibitor, partial curve].

Q: For O=C(CCCN1C(=O)/C(=C\c2ccccc2)SC1=S)Nc1ccc(O)cc1C(=O)O, which Potency is on record?
A: The Potency was “inactive”.

Q: Which Potency does the source give for Cc1ccc(NC(=O)C2Cc3ccccc3N2C(=O)c2ccccc2)cc1Cl (centres undefined) here?
A: Its Potency is inconclusive: 70.8 µM [inhibitor, partial curve, poor fit].

Q: For COC(=O)c1ccccc1NC1=C/C(=N\S(=O)(=O)c2cccs2)c2ccccc2C1=O, which Potency is on record?
A: The Potency was active: 3.98 µM.

Q: CC(C)NC(=O)c1ccc(CSCc2ccccc2Cl)o1 was tested. Which Potency did it give?
A: The Potency was inconclusive: 50.1 µM [inhibitor, partial curve, poor fit].

Q: For COc1ccc(C2C3=C(CCCC3=O)NC3=C2C(=O)c2ccccc23)cc1 (centres undefined), which Potency is on record?
A: The Potency was inconclusive: 5.01 µM [inhibitor, partial curve].

Q: Which Potency does the source give for CC#CCN1c2ccccc2[C@]23C[C@@H](C(=O)OC)N(C(=O)NCCBr)C2=NC(C(=O)OC)=C(C(=O)OC)[C@H]13 here?
A: Its Potency is inconclusive: 22.4 µM [inhibitor, partial curve, poor fit].

Q: Which Potency does the source give for COc1ccc(OC)c(NC(=O)COc2ccc(S(=O)(=O)NC(C)C)cc2)c1 here?
A: The Potency was inconclusive: 6.31 µM [inhibitor, full curve, poor fit].

Q: CCc1ccc(NC(=O)C2CCN(c3nnc(-n4c(C)ccc4C)s3)CC2)cc1 was tested. Which Potency did it give?
A: The Potency was inconclusive: 0.631 µM [inhibitor, full curve, poor fit].

Q: How did the Potency turn out when CC(=O)c1ccc(NC(=O)CSc2cn(CC(=O)N3CCCCC3)c3ccccc23)cc1 was run?
A: Its Potency is inconclusive: 0.631 µM [inhibitor, full curve, poor fit].

Q: How did the Potency turn out when O=C(NC(=S)N1CCOCC1)C12CC3CCC(CC(C3)C1)C2 was run?
A: Its Potency is “inactive”.

Q: For COc1cc(/C=C2\SC(=Nc3ccc(N4CCOCC4)cc3)N(C)C2=O)ccc1OC(C)C(=O)O (centres undefined), which Potency is on record?
A: Its Potency is inconclusive: 50.1 µM [inhibitor, partial curve, poor fit].

Q: Clc1ccc2nc(C3CCN(Cc4nnnn4C4CCCCC4)CC3)[nH]c2c1 was tested. Which Potency did it give?
A: The Potency was “inactive”.

Q: O=C1C2CC=C(Cl)CC2C(=O)N1CCc1ccccc1 (centres undefined) was tested. Which Potency did it give?
A: Its Potency is inconclusive: 35.5 µM [inhibitor, single point].

Q: How did the Potency turn out when COc1ccc(OC)c(NC(=O)CSC2=Nc3ccccc3C3=NC(CC(=O)NCc4ccco4)C(=O)N23)c1 (centres undefined) was run?
A: Its Potency is inconclusive: 89.1 µM [inhibitor, partial curve].

Q: For Cc1ccc(S(=O)(=O)Nc2csc(C)c2C(=O)O)cc1, which Potency is on record?
A: The Potency was inconclusive: 39.8 µM [inhibitor, partial curve, poor fit].

Q: For COc1ccc2c(c1)c(CC(=O)Nc1ccccc1OC)c(C)n2C(=O)c1ccc(Cl)cc1, which Potency is on record?
A: The Potency was inconclusive: 6.31 µM [inhibitor, single point].
